In publication PMC7585203:
These are yes or no findings as the source states them, for the method shown. A result given as binding can be weak or reduced; the word gives no strength.

Target: GST-tagged UHRF1 Tudor domain printed on the protein reader domain microarray (not stated (printed UniProt entry is human))
Assay: peptide or protein array; protein reader domain microarray: 308 GST-tagged domains printed in duplicate on nitrocellulose-coated glass slides; C-terminally biotinylated peptides labelled with Cy3- (methods, legend) or Cy5- (results) streptavidin, 100 µg peptide in 1.8 mL PBST with 3% milk and 3% …; saturating peptide concentrations; both purified

- binding: binds
B1: biotinylated LIG1(118–130)K126me0 peptide (peptide)
peptide: IPKRRTARKQLPK
modifications: C-terminal biotin (complexed with Cy3/Cy5-streptavidin)
